Data published in paper PMC12392927.
These are yes or no findings as the source states them, for the method shown. In cells and extracts the contact can be indirect. Tags and fused reporters may be left off the sequences shown.

Molecular target: GUS (cLUC-GUS and nLUC-GUS), P05804
Assay: split reporter; luciferase complementation imaging; cLUC and nLUC fusions co-expressed in N. benthamiana leaves, read 48 h after infiltration with 1 mM D-luciferin
Settings: remark: other sources report otherwise

binding: no binding
B1: GUS (cLUC-GUS and nLUC-GUS), P05804 1-603 (enzyme)
chain: MLRPVETPTREIKKLDGLWAFSLDRENCGIDQRWWESALQESRAIAVPGSFNDQFADADIRNYAGNVWYQREVFIPKGWAGQRIVLRFDAVTHYGKVWVNNQEVMEHQGGYTPFEADVTPYVIAGKSVRITVCVNNELNWQTIPPGMVITDENGKKKQSYFHDFFNYAGIHRSVMLYTTPNTWVDDITVVTHVAQDCNHASVDWQVVANGDVSVELRDADQQVVATGQGTSGTLQVVNPHLWQPGEGYLYELCVTAKSQTECDIYPLRVGIRSVAVKGEQFLINHKPFYFTGFGRHEDADLRGKGFDNVLMVHDHALMDWIGANSYRTSHYPYAEEMLDWADEHGIVVIDETAAVGFNLSLGIGFEAGNKPKELYSEEAVNGETQQAHLQAIKELIARDKNHPSVVMWSIANEPDTRPQGAREYFAPLAEATRKLDPTRPITCVNVMFCDAHTDTISDLFDVLCLNRYYGWYVQSGDLETAEKVLEKELLAWQEKLHQPIIITEYGVDTLAGLHSMYTDMWSEEYQCAWLDMYHRVFDRVSAVVGEQVWNFADFATSQGILRVGGNKKGIFTRDRKPKSAAFLLQKRWTGMNFGEKPQQGGKQ
